Reference: publication PMC10755771
Results are given in words; binding and its absence hold for the method and conditions named. Some binding calls cover weakened binding; strength is not graded here. Sequences can lack the tags named with a protein.

Molecular target: GST-AIP4 (atrophin-interacting protein 4), Q96J02
Assay: pull-down; GST-AIP4 or GST immobilised on glutathione-Sepharose (600 nM in the methods, 1 μM in the legend); purified WT βarr1 or βarr1-4A (100 nM in the methods, 500 ng in the legend); 4 °C, 2 h; 20 mM Tris-HCl pH 7.5, 150 mM NaCl, 0.1% Triton X-100, 1 mM DTT; bound βarr1 detected by …; both purified
Conditions: remark: other sources report otherwise

B1: βarrestin1 (untagged, wild type), P49407 1-418 (protein)
chain: MGDKGTRVFKKASPNGKLTVYLGKRDFVDHIDLVDPVDGVVLVDPEYLKERRVYVTLTCAFRYGREDLDVLGLTFRKDLFVANVQSFPPAPEDKKPLTRLQERLIKKLGEHAYPFTFEIPPNLPCSVTLQPGPEDTGKACGVDYEVKAFCAENLEEKIHKRNSVRLVIRKVQYAPERPGPQPTAETTRQFLMSDKPLHLEASLDKEIYYHGEPISVNVHVTNNTNKTVKKIKISVRQYADICLFNTAQYKCPVAMEEADDTVAPSSTFCKVYTLTPFLANNREKRGLALDGKLKHEDTNLASSTLLREGANREILGIIVSYKVKVKLVVSRGGLLGDLASSDVAVELPFTLMHPKPKEEPPHREVPENETPVDTNLIELDTNDDDIVFEDFARQRLKGMKDDKEEEEDGTGSPQLNNR
binding: binds
